Small-molecule microarray binding calls

Calls as published in the ROBIN set (doi:10.1002/anie.202211358).

Targets, with sequences 5′ to 3′:
T1: SAM-II riboswitch RNA pseudoknot, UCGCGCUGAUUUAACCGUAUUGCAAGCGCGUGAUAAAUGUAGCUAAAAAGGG. Hit rate about 1% of about 21,000 compounds.
T2: PreQ1 riboswitch RNA pseudoknot, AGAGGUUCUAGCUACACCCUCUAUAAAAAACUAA. From B. subtilis. Hit rate about 0.7% of about 24,000 compounds.
T3: TPP riboswitch RNA three-way junction, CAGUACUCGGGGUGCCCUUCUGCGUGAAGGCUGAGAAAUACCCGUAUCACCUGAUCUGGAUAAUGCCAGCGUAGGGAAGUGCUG. Hit rate about 0.7% of about 24,000 compounds.

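Each compound is printed as two spots on a slide made to bind it covalently, so it has no test concentration; the read-out is fluorescence of the bound, labelled oligonucleotide. For the PreQ1, TPP and SAM-II riboswitches the laboratory earlier reported (doi:10.1038/s41467-019-09493-3) 1 µM RNA, 2 h, and a rule that included a mean Z-score above 3 (spot signal-to-noise against the whole library), a score well above that on a control array, and duplicate spots agreeing (coefficient of variation under 100). The data file gives only the calls; its cut-offs may differ, and compounds hitting several targets are kept. The calls come from the array alone, and fixing a compound to the slide can hide its binding.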
Key: active = hit, inactive = tested without a hit.
The compounds are a random part of those screened.
A target missing from an entry has no call listed here.

compound: CC(C)c1cc(NCc2ccc(O)cc2)nc(N)n1
T1: inactive
T2: inactive
T3: inactive

compound: O=C(Nc1ccc(-c2ccn[nH]2)cc1)N1CCOCC(CO)C1 (centres unmarked)
T1: inactive
T2: inactive
T3: inactive

compound: CC(C)CCNc1c2c(nc3nncn13)CCC2
T2: inactive
T3: inactive

compound: COc1cccc(CNCc2ccco2)c1OCc1ccccc1F
T1: inactive
T2: inactive
T3: inactive

compound: Cc1ccc(CNc2nc3c(C)cccc3cc2-c2noc(C)n2)cc1
T2: inactive
T3: inactive

compound: Nc1c(S(=O)(=O)Cc2ccc(Cl)cc2)sc2nc3c(cc12)CCCC3
T1: inactive
T2: inactive
T3: inactive

compound: OCCC#Cc1ccc(CN2CCN(c3ccc(Cl)nn3)CC2)cc1
T1: inactive
T2: inactive
T3: inactive

compound: Cc1cccc(-c2nc3nc(C)cc(NCc4ccccc4)n3n2)c1
T2: inactive
T3: inactive

compound: CCOC(=O)c1cnc2c(C)cccc2c1Nc1cccc(C(=O)O)c1
T1: inactive
T2: inactive
T3: inactive

compound: Cc1ccc2oc(C(=O)NCC3(O)CCCNCC3)cc2c1 (centres unmarked)
T1: inactive
T2: inactive
T3: inactive

compound: C=CCNc1oc(-c2ccc(S(=O)(=O)N(CC)CC)cc2)nc1C#N
T2: inactive
T3: inactive

compound: Nc1c(-c2ccccc2)cnn1-c1ccc(C(=O)O)cc1
T1: inactive
T2: inactive
T3: inactive

compound: Fc1ccccc1Nc1nc(-c2ccncc2)cs1
T1: inactive
T2: inactive
T3: inactive

compound: Cc1cc(C)c(NC(=O)Cn2c(-c3nonc3N)nc3ccccc32)c(C)c1
T1: inactive
T2: inactive
T3: inactive

compound: O=C(NC(CO)c1ccc(F)cc1)C1CCN(C2CCCCC2)CC1 (centres unmarked)
T1: inactive
T2: inactive
T3: inactive

compound: CCOC(=O)c1sc2nc(C)nc(Nc3ccc(F)cc3)c2c1C
T1: inactive
T2: inactive
T3: inactive

compound: COc1ccc(Cn2nnc(C(=O)Nc3ccc(F)cc3)c2N)cc1
T1: inactive
T2: inactive
T3: inactive

compound: N#Cc1c(N)nc2c(c1-c1cccc(Cn3cccn3)c1)COCC2
T1: inactive
T2: inactive
T3: inactive

compound: Nc1cc(-n2cnnc2)ccc1C(=O)O
T1: inactive
T2: inactive
T3: inactive

compound: CC(C)NC(=O)[C@@H]1C[C@H](N)CN1C(=O)CCn1cc(Cl)cn1
T1: inactive
T2: inactive
T3: inactive

compound: CCc1ccc(CNc2cc3c(cc2C)n(C)c(=O)n3C)cc1
T1: inactive
T2: inactive
T3: inactive

compound: CCCc1cc(Nc2cccc(C(=O)OC)c2)n2nc(-c3cccnc3)nc2n1
T2: inactive
T3: inactive

compound: O=C1C=C(NC2Cc3ccccc3C2)CC(c2ccccc2)C1 (centres unmarked)
T1: inactive
T2: inactive
T3: inactive

compound: CN1CC2(CCNCC2)CC1C(=O)N1CCN(c2ncccc2Cl)CC1 (centres unmarked)
T1: inactive
T2: inactive
T3: inactive

compound: Cc1ccc(N2C(=O)CC(NC3CCS(=O)(=O)C3)C2=O)cc1 (centres unmarked)
T1: inactive
T2: inactive
T3: inactive

compound: CC(C)Oc1ccc(CNCC2CCOC(C)(C)C2)cc1 (centres unmarked)
T2: inactive
T3: inactive

compound: COc1cccc([C@H]2CN(C(=O)c3cccc(-n4cccn4)c3)C[C@@H]2N)c1
T1: inactive
T2: inactive
T3: inactive

compound: Nc1ccc(C(=O)Nc2ccc(NC(=O)c3ccco3)c(O)c2)cc1
T1: inactive
T2: inactive
T3: inactive

compound: COc1ccc(OCc2ccc(-c3nc(C#N)c(NCCN(C)C)o3)o2)cc1
T2: inactive
T3: inactive

compound: O=C1c2ccccc2C(=O)c2c1cccc2N1CCCC(CO)C1 (centres unmarked)
T1: inactive
T2: inactive
T3: inactive

compound: CN1C[C@H]2CNC[C@@]2(C(=O)NCCS(=O)(=O)c2ccc(F)cc2)C1
T1: inactive
T2: inactive
T3: inactive

3 of the entries, repeated:

{"compound": "CCOC(=O)c1cnc2c(C)cccc2c1Nc1cccc(C(=O)O)c1", "T1": "inactive", "T2": "inactive", "T3": "inactive"}
{"compound": "Nc1c(-c2ccccc2)cnn1-c1ccc(C(=O)O)cc1", "T1": "inactive", "T2": "inactive", "T3": "inactive"}
{"compound": "CC(C)CCNc1c2c(nc3nncn13)CCC2", "T2": "inactive", "T3": "inactive"}